Assay results as given in the supplement of paper PMC4604168 (melanoma cell lines).
This is one part of the list. Single values are uncertain, as repeats are few or missing.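 The apoptosis fraction was the count of cleaved-PARP antibody-stained nuclei relative to all DNA-stained nuclei, imaged in 1,536-well plates. Screening doses were set so most cells survived, and baseline and induced cleaved-PARP levels vary greatly across cell lines.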

How the values were obtained:
Assay in all cases: cleaved PARP positive nuclei fraction relative to DMSO control; melanoma cells; higher = more apoptosis
Details in all cases: library dose: low library concentration; 72 h
MZ2-MEL = system: MZ2-MEL
MeWo = system: MeWo
RPMI7951 = system: RPMI7951
RVH-421 = system: RVH-421
SkMel28 = system: SkMel28
SkMel2 = system: SkMel2
SkMel30 = system: SkMel30
SkMel5 = system: SkMel5
UACC257 = system: UACC257
UACC62 = system: UACC62
WM115 = system: WM115
WM1716 = system: WM1716
WM1745 = system: WM1745
WM3526 = system: WM3526
WM3619 = system: WM3619
WM451Lu = system: WM451Lu

| SMILES | cleaved PARP positive nuclei fraction (MZ2-MEL) [%] | cleaved PARP positive nuclei fraction (MeWo) [%] | cleaved PARP positive nuclei fraction (RPMI7951) [%] | cleaved PARP positive nuclei fraction (RVH-421) [%] | cleaved PARP positive nuclei fraction (SkMel28) [%] | cleaved PARP positive nuclei fraction (SkMel2) [%] | cleaved PARP positive nuclei fraction (SkMel30) [%] | cleaved PARP positive nuclei fraction (SkMel5) [%] | cleaved PARP positive nuclei fraction (UACC257) [%] | cleaved PARP positive nuclei fraction (UACC62) [%] | cleaved PARP positive nuclei fraction (WM115) [%] | cleaved PARP positive nuclei fraction (WM1716) [%] | cleaved PARP positive nuclei fraction (WM1745) [%] | cleaved PARP positive nuclei fraction (WM3526) [%] | cleaved PARP positive nuclei fraction (WM3619) [%] | cleaved PARP positive nuclei fraction (WM451Lu) [%] |
| --- | --- | --- | --- | --- | --- | --- | --- | --- | --- | --- | --- | --- | --- | --- | --- | --- |
| Cc1cc(Nc2cc(N3CCN(C)CC3)nc(Sc3ccc(NC(=O)C4CC4)cc3)n2)n[nH]1 [Tozasertib] + CN(NC(=O)CC(=O)NN(C)C(=S)c1ccccc1)C(=S)c1ccccc1 [STA4783] (first compound 0.006 µM, partner dose 0.006 µM) | 118 | 90.8 | 106 | 196 | 203 | 16.8 | 375 | 116 | 104 | 132 | 240 | 178 | 163 | 57.4 | 137 | 112 |
| CCCCCCCCCCCCCCCCCCOP(=O)([O-])OC1CC[N+](C)(C)CC1 [Perifosine] + CC(C)(C)c1cnc(CSc2cnc(NC(=O)C3CCNCC3)s2)o1 [SNS-032] (first compound 0.4 µM, partner dose 0.01 µM) | 96.7 | 34.7 | 347 | 75.7 | 99.9 | 272 | 118 | 55.6 | 64.2 | 62.2 | 170 | 192 | 128 | 60 | 113 | 44.6 |
| O=C(Nc1cc(C(F)(F)F)cc(C(F)(F)F)c1)c1cc(Cl)ccc1O + COc1cc2ncnc(Nc3ccc(Oc4ccccc4)cc3)c2cc1OC [SrcI1] (first compound 0.016 µM, partner dose 2 µM) | 57.6 | 174 | 120 | 42.5 | 39.7 | 86.2 | 25.8 | 87.7 | 130 | 73.1 | 26.4 | 44.4 | 100 | 47 | 98.4 | 119 |
| O=c1[nH]nc(Sc2ncc([N+](=O)[O-])s2)n1-c1ccc2c(c1)OCCO2 + CC1(C)NC(=O)N(c2ccc([N+](=O)[O-])c(C(F)(F)F)c2)C1=O [nilutamide] (first compound 0.2 µM, partner dose 1 µM) | 70.1 | 50.8 | 121 | 40.5 | 95.7 | 85 | 59.7 | 135 | 98.7 | 128 | 149 | 168 | 94.1 | 46.6 | 68.4 | 92.9 |
| O=c1[nH]nc(Sc2ncc([N+](=O)[O-])s2)n1-c1ccc2c(c1)OCCO2 + O=C1NC(=O)/C(=C/c2ccc(-c3ccc(F)cc3O)o2)S1 [AS252424] (first compound 0.2 µM, partner dose 1 µM) | 99.1 | 95.6 | 35 | 127 | 68.7 | 34 | 25.4 | 63.2 | 449 | 79.6 | 91.8 | 53.2 | 91.3 | 71.8 | 79.3 | 20.7 |
| COc1cc([C@@H]2c3cc4c(cc3[C@@H](O[C@@H]3O[C@@H]5CO[C@@H](C)O[C@H]5[C@H](O)[C@H]3O)[C@H]3COC(=O)[C@H]23)OCO4)cc(OC)c1O [etoposide] + NCC(=O)Nc1ccc(-n2nc(C(F)(F)F)cc2-c2ccc3c(ccc4ccccc43)c2)cc1 [OSU03012] (first compound 0.02 µM, partner dose 1 µM) | 35.1 | 129 | 88.7 | 117 | 73.8 | 86.5 | 130 | 143 | 70.6 | 130 | 70 | 73.4 | 99.1 | 111 | 96 | 45.3 |
| Cc1cn(-c2cc(NC(=O)c3ccc(C)c(Nc4nccc(-c5cccnc5)n4)c3)cc(C(F)(F)F)c2)cn1 [nilotinib] + COc1cc(N2CCC(N3CCN(C)CC3)CC2)ccc1Nc1ncc(Cl)c(Nc2ccccc2S(=O)(=O)C(C)C)n1 [NVP-TAE684] (first compound 0.2 µM, partner dose 0.08 µM) | 63.2 | 274 | 74.4 | 128 | 165 | 189 | 55.5 | 86.4 | 225 | 154 | 150 | 99.2 | 121 | 91.3 | 159 | 51.7 |
| CCCCCCCCCCCCCCCCCCOP(=O)([O-])OC1CC[N+](C)(C)CC1 [Perifosine] + O=S(=O)(c1ccccc1)N(CC(F)(F)F)c1ccc(C(O)(C(F)(F)F)C(F)(F)F)cc1 [T0901317] (first compound 0.4 µM, partner dose 1.4 µM) | 98.7 | 89.1 | 118 | 134 | 47.7 | 166 | 106 | 84 | 207 | 126 | 170 | 238 | 103 | 84.1 | 192 | 85.4 |
| Cc1ccc(Nc2nccc(N(C)c3ccc4c(C)n(C)nc4c3)n2)cc1S(N)(=O)=O [Pazopanib] + c1cc(-c2cnn3cc(-c4ccc(OCCN5CCCCC5)cc4)cnc23)ccn1 [Dorsomorphin] (first compound 0.4 µM, partner dose 0.4 µM) | 130 | 29.7 | 40.5 | 94.3 | 61.6 | 87.1 | 85.7 | 53 | 257 | 63.6 | 72.7 | 44.8 | 102 | 103 | 118 | 36.6 |
| O=C(Nc1cc(C(F)(F)F)cc(C(F)(F)F)c1)c1cc(Cl)ccc1O + COC(=O)c1sccc1S(=O)(=O)Nc1ccc(Nc2ccccc2)cc1OC [GSK0660] (first compound 0.016 µM, partner dose 1 µM) | 94.6 | 358 | 177 | 67.7 | 30.1 | 104 | 144 | 157 | 198 | 75.1 | 76.4 | 160 | 87.4 | 89 | 106 | 97.5 |
| CCCCCCCCCCCCCCCCCCOP(=O)([O-])OC1CC[N+](C)(C)CC1 [Perifosine] + COc1cc2ncnc(Nc3ccc(Oc4ccccc4)cc3)c2cc1OC [SrcI1] (first compound 0.4 µM, partner dose 2 µM) | 92.3 | 67.1 | 152 | 132 | 179 | 54.9 | 85.9 | 247 | 40 | 140 | 177 | 48.3 | 86.9 | 92.9 | 70.8 | 104 |
| Cc1ccc(Nc2nccc(N(C)c3ccc4c(C)n(C)nc4c3)n2)cc1S(N)(=O)=O [Pazopanib] + O=C(CCCCCCC(=O)Nc1ccccc1)NO [vorinostat] (first compound 0.4 µM, partner dose 0.08 µM) | 27.6 | 34.7 | 97.5 | 20.1 | 144 | 51.6 | 82.9 | 74.1 | 103 | 77.2 | 102 | 126 | 102 | 124 | 92.3 | 265 |
| O=c1[nH]nc(Sc2ncc([N+](=O)[O-])s2)n1-c1ccc2c(c1)OCCO2 + Cc1cc(N2CCOCC2)cc2[nH]c(-c3c(NC[C@@H](O)c4cccc(Cl)c4)cc[nH]c3=O)nc12 [BMS536924] (first compound 0.2 µM, partner dose 0.2 µM) | 46.8 | 290 | 54.9 | 112 | 58.3 | 117 | 152 | 212 | 49.5 | 71.1 | 104 | 37.6 | 118 | 65.1 | 93.6 | 127 |
| O=c1[nH]nc(Sc2ncc([N+](=O)[O-])s2)n1-c1ccc2c(c1)OCCO2 + C[C@@H]1CCN(C(=O)CC#N)C[C@@H]1N(C)c1ncnc2[nH]ccc12 [CP690550] (first compound 0.2 µM, partner dose 1 µM) | 59.7 | 68.8 | 150 | 85.2 | 41.9 | 102 | 119 | 149 | 111 | 48.4 | 50 | 120 | 103 | 57.2 | 93.1 | 90.1 |
| CC[C@]1(O)C[C@H]2CN(CCc3c([nH]c4ccccc34)[C@@](C(=O)OC)(c3cc4c(cc3OC)N(C=O)[C@H]3[C@@](O)(C(=O)OC)[C@H](OC(C)=O)[C@]5(CC)C=CCN6CC[C@]43[C@@H]65)C2)C1 [vincristine] + Cc1cc([N+](=O)[O-])ccc1NS(=O)(=O)c1cc(Cl)ccc1Cl [FH535] (first compound 0.0001 µM, partner dose 1 µM) | 226 | 245 | 379 | 215 | 187 | 152 | 88 | 88.9 | 399 | 342 | 2070 | 463 | 136 | 150 | 214 | 276 |
| Cc1cn(-c2cc(NC(=O)c3ccc(C)c(Nc4nccc(-c5cccnc5)n4)c3)cc(C(F)(F)F)c2)cn1 [nilotinib] + COc1cc2ncnc(Nc3ccc(Oc4ccccc4)cc3)c2cc1OC [SrcI1] (first compound 0.2 µM, partner dose 2 µM) | 107 | 167 | 66.9 | 80.7 | 111 | 51.3 | 54.7 | 67.4 | 124 | 110 | 170 | 149 | 99.6 | 123 | 97.8 | 89.6 |
| CCCCCCCCCCCCCCCCCCOP(=O)([O-])OC1CC[N+](C)(C)CC1 [Perifosine] + CCN(CC)CCCCNc1ncc2cc(-c3cc(OC)cc(OC)c3)c(NC(=O)NC(C)(C)C)nc2n1 [PD173074] (first compound 0.4 µM, partner dose 0.1 µM) | 180 | 41.5 | 88.4 | 102 | 165 | 98.5 | 81.5 | 200 | 94.2 | 142 | 196 | 169 | 89.5 | 76.7 | 114 | 35.2 |

Three successive entries already listed, for reference:

| SMILES | cleaved PARP positive nuclei fraction (MZ2-MEL) [%] | cleaved PARP positive nuclei fraction (MeWo) [%] | cleaved PARP positive nuclei fraction (RPMI7951) [%] | cleaved PARP positive nuclei fraction (RVH-421) [%] | cleaved PARP positive nuclei fraction (SkMel28) [%] | cleaved PARP positive nuclei fraction (SkMel2) [%] | cleaved PARP positive nuclei fraction (SkMel30) [%] | cleaved PARP positive nuclei fraction (SkMel5) [%] | cleaved PARP positive nuclei fraction (UACC257) [%] | cleaved PARP positive nuclei fraction (UACC62) [%] | cleaved PARP positive nuclei fraction (WM115) [%] | cleaved PARP positive nuclei fraction (WM1716) [%] | cleaved PARP positive nuclei fraction (WM1745) [%] | cleaved PARP positive nuclei fraction (WM3526) [%] | cleaved PARP positive nuclei fraction (WM3619) [%] | cleaved PARP positive nuclei fraction (WM451Lu) [%] |
| --- | --- | --- | --- | --- | --- | --- | --- | --- | --- | --- | --- | --- | --- | --- | --- | --- |
| O=c1[nH]nc(Sc2ncc([N+](=O)[O-])s2)n1-c1ccc2c(c1)OCCO2 + O=C1NC(=O)/C(=C/c2ccc(-c3ccc(F)cc3O)o2)S1 [AS252424] (first compound 0.2 µM, partner dose 1 µM) | 99.1 | 95.6 | 35 | 127 | 68.7 | 34 | 25.4 | 63.2 | 449 | 79.6 | 91.8 | 53.2 | 91.3 | 71.8 | 79.3 | 20.7 |
| COc1cc([C@@H]2c3cc4c(cc3[C@@H](O[C@@H]3O[C@@H]5CO[C@@H](C)O[C@H]5[C@H](O)[C@H]3O)[C@H]3COC(=O)[C@H]23)OCO4)cc(OC)c1O [etoposide] + NCC(=O)Nc1ccc(-n2nc(C(F)(F)F)cc2-c2ccc3c(ccc4ccccc43)c2)cc1 [OSU03012] (first compound 0.02 µM, partner dose 1 µM) | 35.1 | 129 | 88.7 | 117 | 73.8 | 86.5 | 130 | 143 | 70.6 | 130 | 70 | 73.4 | 99.1 | 111 | 96 | 45.3 |
| Cc1cn(-c2cc(NC(=O)c3ccc(C)c(Nc4nccc(-c5cccnc5)n4)c3)cc(C(F)(F)F)c2)cn1 [nilotinib] + COc1cc(N2CCC(N3CCN(C)CC3)CC2)ccc1Nc1ncc(Cl)c(Nc2ccccc2S(=O)(=O)C(C)C)n1 [NVP-TAE684] (first compound 0.2 µM, partner dose 0.08 µM) | 63.2 | 274 | 74.4 | 128 | 165 | 189 | 55.5 | 86.4 | 225 | 154 | 150 | 99.2 | 121 | 91.3 | 159 | 51.7 |
